Source: article PMC7893028
No constants are given. Whether binding was seen depends on the method and setting. Binding seen in cells or lysates may run through a third protein. Some binding calls cover weakened binding; strength is not graded here. For some of these results: Sequences can lack the tags named with a protein.

Amino acid sequences for entries named in this document (tags omitted). Residues count along the entry.
UniProt Q99MB1, residues 26-905: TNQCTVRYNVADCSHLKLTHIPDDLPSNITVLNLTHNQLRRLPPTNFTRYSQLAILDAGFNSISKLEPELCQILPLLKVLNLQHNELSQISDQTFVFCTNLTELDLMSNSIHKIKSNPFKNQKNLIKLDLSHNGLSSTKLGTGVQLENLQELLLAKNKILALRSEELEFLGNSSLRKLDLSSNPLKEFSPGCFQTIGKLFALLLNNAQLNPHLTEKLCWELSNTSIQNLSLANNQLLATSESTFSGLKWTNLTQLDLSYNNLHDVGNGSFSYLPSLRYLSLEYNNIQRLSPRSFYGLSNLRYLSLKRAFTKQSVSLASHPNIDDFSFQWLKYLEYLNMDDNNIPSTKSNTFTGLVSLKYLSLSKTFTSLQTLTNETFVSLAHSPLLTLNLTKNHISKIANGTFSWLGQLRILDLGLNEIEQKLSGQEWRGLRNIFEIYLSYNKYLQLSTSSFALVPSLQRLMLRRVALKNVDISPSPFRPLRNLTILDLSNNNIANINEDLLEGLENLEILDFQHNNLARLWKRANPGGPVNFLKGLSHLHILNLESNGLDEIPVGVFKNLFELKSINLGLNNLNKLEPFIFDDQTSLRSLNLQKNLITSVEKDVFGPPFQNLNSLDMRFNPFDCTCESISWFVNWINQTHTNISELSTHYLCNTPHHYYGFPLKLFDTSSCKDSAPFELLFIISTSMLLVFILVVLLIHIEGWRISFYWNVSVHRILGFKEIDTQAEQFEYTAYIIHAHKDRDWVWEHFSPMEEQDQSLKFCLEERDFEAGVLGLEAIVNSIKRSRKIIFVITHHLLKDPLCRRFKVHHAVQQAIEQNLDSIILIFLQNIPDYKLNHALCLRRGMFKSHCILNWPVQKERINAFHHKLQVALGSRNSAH
UniProt O15455, residues 24-904: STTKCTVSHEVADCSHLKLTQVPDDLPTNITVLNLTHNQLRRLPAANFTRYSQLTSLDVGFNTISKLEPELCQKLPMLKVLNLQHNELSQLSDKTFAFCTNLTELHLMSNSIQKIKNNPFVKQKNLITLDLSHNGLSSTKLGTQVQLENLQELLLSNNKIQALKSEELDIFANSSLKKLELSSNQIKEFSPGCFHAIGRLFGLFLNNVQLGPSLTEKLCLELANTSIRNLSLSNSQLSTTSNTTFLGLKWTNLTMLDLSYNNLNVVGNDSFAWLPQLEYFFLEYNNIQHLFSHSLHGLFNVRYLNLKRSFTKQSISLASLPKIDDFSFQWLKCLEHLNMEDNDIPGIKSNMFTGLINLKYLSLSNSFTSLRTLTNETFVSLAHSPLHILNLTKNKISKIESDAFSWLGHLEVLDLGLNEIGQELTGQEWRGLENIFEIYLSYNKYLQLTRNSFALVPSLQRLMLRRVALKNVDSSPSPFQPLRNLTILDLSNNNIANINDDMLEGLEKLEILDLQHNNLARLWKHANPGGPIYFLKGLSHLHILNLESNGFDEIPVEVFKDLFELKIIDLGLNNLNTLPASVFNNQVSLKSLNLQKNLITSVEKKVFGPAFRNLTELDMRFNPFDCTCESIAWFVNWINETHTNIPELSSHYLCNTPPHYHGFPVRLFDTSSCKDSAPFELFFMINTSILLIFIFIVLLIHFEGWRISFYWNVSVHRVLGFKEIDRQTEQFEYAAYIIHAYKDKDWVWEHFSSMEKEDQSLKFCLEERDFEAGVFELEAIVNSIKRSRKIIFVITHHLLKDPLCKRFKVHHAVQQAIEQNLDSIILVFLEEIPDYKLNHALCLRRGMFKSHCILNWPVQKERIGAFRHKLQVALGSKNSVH

Legend:
[1] = target: Mouse TLR3, endogenous in BMDMs (mouse (endogenous in BMDMs)) (UniProt Q99MB1); test: FRET or BRET; FLIM-FRET in BMDMs of ROSA-CLEC18A/CLEC18A(S339R) knock-in mice; preincubated with TLR3/dsRNA complex inhibitor (various concentrations) for 1 h, then HMW poly (I:C) 25 μg/ml for 2 h
[2] = target: Flag-tagged human TLR3, full-length (pFlag-CMV1-hTLR3) (human) (UniProt O15455); test: co-IP; 293T cells co-transfected with HA-CLEC18A or HA-CLEC18A(S339R) and Flag-TLR3 (full-length or deletion mutants), 48 h; lysates precipitated with anti-Flag mAb Sepharose beads, blot with anti-HA and anti-Flag; isotype mAb beads as control

Binder	binding [1]	binding [2]
Human CLEC18A expressed in BMDMs of ROSA-CLEC18A knock-in mice (protein, UniProt A5D8T8 27-446) EVWPPQLQEQAPMAGALNRKESFLLLSLHNRLRSWVQPPAADMRRLDWSDSLAQLAQARAALCGTPTPSLASGLWRTLQVGWNMQLLPAGLVSFVEVVSLWFAEGQRYSHAAGECARNATCTHYTQLVWATSSQLGCGRHLCSAGQAAIEAFVCAYSPRGNWEVNGKTIVPYKKGAWCSLCTASVSGCFKAWDHAGGLCEVPRNPCRMSCQNHGRLNISTCHCHCPPGYTGRYCQVRCSLQCVHGRFREEECSCVCDIGYGGAQCATKVHFPFHTCDLRIDGDCFMVSSEADTYYRARMKCQRKGGVLAQIKSQKVQDILAFYLGRLETTNEVIDSDFETRNFWIGLTYKTAKDSFRWATGEHQAFTSFAFGQPDNHGFGNCVELQASAAFNWNDQRCKTRNRYICQFAQEHISRWGPGS	binds	
Human CLEC18A(S339R) expressed in BMDMs of ROSA-CLEC18A(S339R) knock-in mice (protein, UniProt A5D8T8 27-446) EVWPPQLQEQAPMAGALNRKESFLLLSLHNRLRSWVQPPAADMRRLDWSDSLAQLAQARAALCGTPTPSLASGLWRTLQVGWNMQLLPAGLVSFVEVVSLWFAEGQRYSHAAGECARNATCTHYTQLVWATSSQLGCGRHLCSAGQAAIEAFVCAYSPRGNWEVNGKTIVPYKKGAWCSLCTASVSGCFKAWDHAGGLCEVPRNPCRMSCQNHGRLNISTCHCHCPPGYTGRYCQVRCSLQCVHGRFREEECSCVCDIGYGGAQCATKVHFPFHTCDLRIDGDCFMVSSEADTYYRARMKCQRKGGVLAQIKRQKVQDILAFYLGRLETTNEVIDSDFETRNFWIGLTYKTAKDSFRWATGEHQAFTSFAFGQPDNHGFGNCVELQASAAFNWNDQRCKTRNRYICQFAQEHISRWGPGS	binds	
HA-tagged human CLEC18A (pMACS.Kk-HA(C)-hCLEC18A) (protein, UniProt A5D8T8 27-446) EVWPPQLQEQAPMAGALNRKESFLLLSLHNRLRSWVQPPAADMRRLDWSDSLAQLAQARAALCGTPTPSLASGLWRTLQVGWNMQLLPAGLVSFVEVVSLWFAEGQRYSHAAGECARNATCTHYTQLVWATSSQLGCGRHLCSAGQAAIEAFVCAYSPRGNWEVNGKTIVPYKKGAWCSLCTASVSGCFKAWDHAGGLCEVPRNPCRMSCQNHGRLNISTCHCHCPPGYTGRYCQVRCSLQCVHGRFREEECSCVCDIGYGGAQCATKVHFPFHTCDLRIDGDCFMVSSEADTYYRARMKCQRKGGVLAQIKSQKVQDILAFYLGRLETTNEVIDSDFETRNFWIGLTYKTAKDSFRWATGEHQAFTSFAFGQPDNHGFGNCVELQASAAFNWNDQRCKTRNRYICQFAQEHISRWGPGS		binds
HA-tagged human CLEC18A(S339R) (pMACS.Kk-HA(C)-hCLEC18A(S339R)) (protein, UniProt A5D8T8 27-446) EVWPPQLQEQAPMAGALNRKESFLLLSLHNRLRSWVQPPAADMRRLDWSDSLAQLAQARAALCGTPTPSLASGLWRTLQVGWNMQLLPAGLVSFVEVVSLWFAEGQRYSHAAGECARNATCTHYTQLVWATSSQLGCGRHLCSAGQAAIEAFVCAYSPRGNWEVNGKTIVPYKKGAWCSLCTASVSGCFKAWDHAGGLCEVPRNPCRMSCQNHGRLNISTCHCHCPPGYTGRYCQVRCSLQCVHGRFREEECSCVCDIGYGGAQCATKVHFPFHTCDLRIDGDCFMVSSEADTYYRARMKCQRKGGVLAQIKRQKVQDILAFYLGRLETTNEVIDSDFETRNFWIGLTYKTAKDSFRWATGEHQAFTSFAFGQPDNHGFGNCVELQASAAFNWNDQRCKTRNRYICQFAQEHISRWGPGS		binds
